Measurements: US20030162221A1
No constants are given. Whether binding was seen depends on the method and setting. Binding seen in cells or lysates may run through a third protein. Some results given as binding are weak or reduced against the parent protein; the word gives no strength. Tags and fused reporters may be left off the sequences shown. Each block holds one binder with its values, some of them ahead of it.

What was measured:
Experiment in all cases: anti-FLAG co-IP, LC-MS/MS
[1] = target: T1, Mcd1/Scc1 (Saccharomyces cerevisiae) (UniProt Q12158)
T1 sequence (looked up): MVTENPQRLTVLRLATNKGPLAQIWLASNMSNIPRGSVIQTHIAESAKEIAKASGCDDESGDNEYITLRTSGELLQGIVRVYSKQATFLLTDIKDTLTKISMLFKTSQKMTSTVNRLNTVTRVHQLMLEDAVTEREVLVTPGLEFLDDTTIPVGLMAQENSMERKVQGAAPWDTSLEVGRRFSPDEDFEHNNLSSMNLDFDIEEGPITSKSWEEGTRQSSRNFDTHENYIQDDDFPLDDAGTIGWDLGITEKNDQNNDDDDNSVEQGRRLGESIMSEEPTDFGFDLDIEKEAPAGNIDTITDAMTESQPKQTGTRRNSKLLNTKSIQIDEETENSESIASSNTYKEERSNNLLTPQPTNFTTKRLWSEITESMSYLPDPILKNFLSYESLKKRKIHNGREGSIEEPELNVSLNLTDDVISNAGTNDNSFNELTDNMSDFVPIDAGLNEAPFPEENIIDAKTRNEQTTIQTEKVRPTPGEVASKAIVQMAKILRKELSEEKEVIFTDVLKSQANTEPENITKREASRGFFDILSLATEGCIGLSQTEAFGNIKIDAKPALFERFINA

[2] = target: T2, Tec1 (Saccharomyces cerevisiae) (UniProt P18412)
T2 sequence (looked up): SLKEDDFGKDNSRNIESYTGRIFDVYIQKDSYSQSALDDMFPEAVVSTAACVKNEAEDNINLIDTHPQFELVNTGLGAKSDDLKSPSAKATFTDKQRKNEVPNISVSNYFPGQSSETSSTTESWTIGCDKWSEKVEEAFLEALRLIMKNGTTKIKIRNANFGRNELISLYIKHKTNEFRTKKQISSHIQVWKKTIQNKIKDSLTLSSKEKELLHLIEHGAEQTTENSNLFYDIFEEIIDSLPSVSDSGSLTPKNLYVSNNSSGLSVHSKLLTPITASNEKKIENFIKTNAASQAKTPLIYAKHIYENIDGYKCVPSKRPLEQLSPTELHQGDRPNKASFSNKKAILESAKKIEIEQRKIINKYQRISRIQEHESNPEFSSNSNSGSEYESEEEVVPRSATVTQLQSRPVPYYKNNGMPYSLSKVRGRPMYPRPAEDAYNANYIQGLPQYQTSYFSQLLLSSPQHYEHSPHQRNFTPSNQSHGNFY

[3] = target: T3, Ste7 (Saccharomyces cerevisiae) (UniProt P06784)
T3 sequence (looked up): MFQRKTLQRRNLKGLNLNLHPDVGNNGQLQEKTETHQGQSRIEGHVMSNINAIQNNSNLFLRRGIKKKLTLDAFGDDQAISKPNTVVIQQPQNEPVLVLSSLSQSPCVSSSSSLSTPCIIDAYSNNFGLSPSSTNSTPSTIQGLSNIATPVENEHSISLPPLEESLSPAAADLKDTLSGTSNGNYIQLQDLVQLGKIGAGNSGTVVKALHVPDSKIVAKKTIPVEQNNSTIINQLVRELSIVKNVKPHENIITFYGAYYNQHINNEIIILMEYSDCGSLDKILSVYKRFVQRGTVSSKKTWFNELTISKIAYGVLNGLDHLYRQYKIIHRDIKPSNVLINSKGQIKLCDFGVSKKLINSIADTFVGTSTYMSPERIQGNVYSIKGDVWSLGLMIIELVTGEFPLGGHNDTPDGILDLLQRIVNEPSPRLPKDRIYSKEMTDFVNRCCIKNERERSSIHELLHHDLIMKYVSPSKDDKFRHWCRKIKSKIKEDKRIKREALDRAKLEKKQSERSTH

[4] = target: T4, Ste12 (Saccharomyces cerevisiae) (UniProt P13574)
T4 sequence (looked up): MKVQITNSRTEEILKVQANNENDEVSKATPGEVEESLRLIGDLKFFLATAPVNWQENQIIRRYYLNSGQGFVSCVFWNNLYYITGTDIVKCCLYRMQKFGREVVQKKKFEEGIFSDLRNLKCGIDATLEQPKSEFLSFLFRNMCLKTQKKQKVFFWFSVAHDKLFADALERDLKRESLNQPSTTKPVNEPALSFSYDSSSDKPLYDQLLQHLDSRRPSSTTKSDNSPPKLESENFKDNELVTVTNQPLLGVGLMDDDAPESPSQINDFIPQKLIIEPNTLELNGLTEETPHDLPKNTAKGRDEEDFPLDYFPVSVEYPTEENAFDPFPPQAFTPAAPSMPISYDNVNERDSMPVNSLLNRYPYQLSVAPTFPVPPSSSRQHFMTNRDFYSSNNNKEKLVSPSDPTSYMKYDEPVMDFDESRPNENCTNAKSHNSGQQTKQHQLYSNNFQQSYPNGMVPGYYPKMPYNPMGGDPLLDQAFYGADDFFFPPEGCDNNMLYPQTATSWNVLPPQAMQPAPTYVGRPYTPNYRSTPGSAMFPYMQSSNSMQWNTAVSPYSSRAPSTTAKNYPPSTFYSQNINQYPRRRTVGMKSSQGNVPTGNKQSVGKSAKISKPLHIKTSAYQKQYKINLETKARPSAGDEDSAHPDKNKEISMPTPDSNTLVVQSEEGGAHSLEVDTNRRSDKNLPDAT

[5] = target: T5, Ste11 (Saccharomyces cerevisiae) (UniProt P23561)
T5 sequence (looked up): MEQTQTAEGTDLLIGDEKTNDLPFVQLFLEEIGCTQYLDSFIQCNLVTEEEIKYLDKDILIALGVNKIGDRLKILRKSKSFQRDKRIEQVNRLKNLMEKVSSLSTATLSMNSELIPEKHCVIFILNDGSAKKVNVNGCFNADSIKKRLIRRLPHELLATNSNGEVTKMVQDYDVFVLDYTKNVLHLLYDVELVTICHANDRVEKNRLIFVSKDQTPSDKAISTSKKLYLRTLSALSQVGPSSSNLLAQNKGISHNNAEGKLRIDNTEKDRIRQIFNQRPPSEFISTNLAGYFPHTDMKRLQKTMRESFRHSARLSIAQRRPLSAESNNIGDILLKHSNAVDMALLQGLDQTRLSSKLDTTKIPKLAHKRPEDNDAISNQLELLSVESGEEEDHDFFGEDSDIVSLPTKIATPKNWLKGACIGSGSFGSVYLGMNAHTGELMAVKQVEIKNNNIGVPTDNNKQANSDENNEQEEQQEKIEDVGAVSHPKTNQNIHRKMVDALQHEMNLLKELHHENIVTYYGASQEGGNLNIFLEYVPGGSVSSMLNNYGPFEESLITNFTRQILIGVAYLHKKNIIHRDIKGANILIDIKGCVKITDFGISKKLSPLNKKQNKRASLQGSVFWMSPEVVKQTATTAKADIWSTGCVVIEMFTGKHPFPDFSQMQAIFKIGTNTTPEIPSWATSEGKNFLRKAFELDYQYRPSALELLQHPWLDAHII

- binding [1]: binds
B1: Cdc5 (protein, Saccharomyces cerevisiae, UniProt P32562 1-705, looked up)
chain: MSLGPLKAINDKQLNTRSKLVHTPIKGNTADLVGKENHFKQTKRLDPNNDHHHQPAQKKKREKLSALCKTPPSLIKTRGKDYHRGHFLGEGGFARCFQIKDDSGEIFAAKTVAKASIKSEKTRKKLLSEIQIHKSMSHPNIVQFIDCFEDDSNVYILLEICPNGSLMELLKRRKVLTEPEVRFFTTQICGAIKYMHSRRVIHRDLKLGNIFFDSNYNLKIGDFGLAAVLANESERKYTICGTPNYIAPEVLMGKHSGHSFEVDIWSLGVMLYALLIGKPPFQARDVNTIYERIKCRDFSFPRDKPISDEGKILIRDILSLDPIERPSLTEIMDYVWFRGTFPPSIPSTVMSEAPNFEDIPEEQSLVNFKDCMEKSLLLESMSSDKIQRQKRDYISSIKSSIDKLEEYHQNRPFLPHSLSPGGTKQKYKEVVDIEAQRRLNDLAREARIRRAQQAVLRKELIATSTNVIKSEISLRILASECHLTLNGIVEAEAQYKMGGLPKSRLPKIKHPMIVTKWVDYSNKHGFSYQLSTEDIGVLFNNGTTVLRLADAEEFWYISYDDREGWVASHYLLSEKPRELSRHLEVVDFFAKYMKANLSRVSTFGREEYHKDDVFLRRYTRYKPFVMFELSDGTFQFNFKDHHKMAISDGGKLVTYISPSHESTTYPLVEVLKYGEIPGYPESNFREKLTLIKEGLKQKSTIVTVD

- binding [2]: binds
- binding [3]: binds
- binding [4]: binds
- binding [5]: binds
B2: Kss1 (protein, Saccharomyces cerevisiae, UniProt P14681 1-368, looked up)
chain: MARTITFDIPSQYKLVDLIGEGAYGTVCSAIHKPSGIKVAIKKIQPFSKKLFVTRTIREIKLLRYFHEHENIISILDKVRPVSIDKLNAVYLVEELMETDLQKVINNQNSGFSTLSDDHVQYFTYQILRALKSIHSAQVIHRDIKPSNLLLNSNCDLKVCDFGLARCLASSSDSRETLVGFMTEYVATRWYRAPEIMLTFQEYTTAMDIWSCGCILAEMVSGKPLFPGRDYHHQLWLILEVLGTPSFEDFNQIKSKRAKEYIANLPMRPPLPWETVWSKTDLNPDMIDLLDKMLQFNPDKRISAAEALRHPYLAMYHDPSDEPEYPPLNLDDEFWKLDNKIMRPEEEEEVPIEMLKDMLYDELMKTME
